Publication PMC11711184, “Structural basis of THC analog activity at the Cannabinoid 1 receptor” (Nature Communications, 2025)
No constants are given. Whether binding was seen depends on the method and setting. In cells and extracts the contact can be indirect. Some results given as binding are weak or reduced against the parent protein; the word gives no strength.

By UniProt entry, the sequences of proteins in these tests, tags left out.
UniProt P21554: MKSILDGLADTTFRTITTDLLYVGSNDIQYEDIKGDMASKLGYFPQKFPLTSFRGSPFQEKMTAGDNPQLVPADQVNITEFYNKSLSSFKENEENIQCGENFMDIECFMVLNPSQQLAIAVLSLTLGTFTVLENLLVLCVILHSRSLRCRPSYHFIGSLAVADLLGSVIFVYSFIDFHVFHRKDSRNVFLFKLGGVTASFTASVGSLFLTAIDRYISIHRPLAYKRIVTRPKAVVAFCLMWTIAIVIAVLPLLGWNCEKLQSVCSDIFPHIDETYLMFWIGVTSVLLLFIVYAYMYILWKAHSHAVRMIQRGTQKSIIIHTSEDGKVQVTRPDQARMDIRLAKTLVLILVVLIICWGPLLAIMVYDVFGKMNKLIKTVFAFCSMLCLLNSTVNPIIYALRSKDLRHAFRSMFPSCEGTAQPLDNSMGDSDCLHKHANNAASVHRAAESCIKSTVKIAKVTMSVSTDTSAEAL
UniProt P32121: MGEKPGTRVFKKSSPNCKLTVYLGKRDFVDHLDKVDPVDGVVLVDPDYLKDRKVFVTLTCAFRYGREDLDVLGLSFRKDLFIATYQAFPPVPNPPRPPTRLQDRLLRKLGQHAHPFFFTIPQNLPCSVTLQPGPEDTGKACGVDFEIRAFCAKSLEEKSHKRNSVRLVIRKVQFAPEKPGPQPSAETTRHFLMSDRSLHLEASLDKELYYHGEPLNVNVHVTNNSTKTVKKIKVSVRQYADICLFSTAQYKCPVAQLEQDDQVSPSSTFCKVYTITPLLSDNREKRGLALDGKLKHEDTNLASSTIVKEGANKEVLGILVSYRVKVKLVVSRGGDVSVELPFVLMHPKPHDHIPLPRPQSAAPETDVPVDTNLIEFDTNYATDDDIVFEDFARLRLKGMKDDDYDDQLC

Columns and labels:
CB1-NlucC (human) [1] = molecular target: CB1-NlucC (human) (UniProt P21554); assay: FRET or BRET; as the β-arrestin2 recruitment BRET in living HEK293-TR cells, with Cannabinol as the agonist; response normalised to 2AG
CB1-NlucC (human) [2] = molecular target: CB1-NlucC (human) (UniProt P21554); assay: FRET or BRET; as the β-arrestin2 recruitment BRET in living HEK293-TR cells, with L759633 as the agonist; response normalised to 2AG
CB1-NlucC (human) [3] = molecular target: CB1-NlucC (human) (UniProt P21554); assay: FRET or BRET; living HEK293-TR cells stably co-expressing CB1-NlucC and NES-venus-β-arrestin2; agonists added (2AG as reference), BRET read at 1-min intervals for 30 min at 37 °C; HBSS, 0.5% BSA, 5 mM HEPES, 10 μM furimazine

Substance: NES-venus-β-arrestin2 (from UniProt P32121 1-409)
- binding (CB1-NlucC (human) [1]): no binding (condition: with Cannabinol as the agonist)
- binding (CB1-NlucC (human) [2]): binds weakly
- binding (CB1-NlucC (human) [3]): binds
